Assay [1] deals with HMGA1 overexpression construct (co-IP with USP7) (UniProt P17096). The experiment in a line: co-IP; HEK-293T cells, 48 h after transient transfection of overexpression constructs; Flag or HA antibody for co-IP; Western blotting. A general note: Immunoblotting shows a protein as a band on a membrane.
In assay [2] the target is 3×Flag-USP7 (ubiquitin-specific peptidase 7) (UniProt Q93009). The description is as above.

Protein sequences, listed by entry. Tags and fused reporters are not part of them.
UniProt P17096: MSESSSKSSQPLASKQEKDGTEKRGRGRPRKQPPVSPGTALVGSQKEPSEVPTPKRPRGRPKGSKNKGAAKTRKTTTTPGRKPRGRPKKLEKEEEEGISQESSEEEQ
UniProt Q93009: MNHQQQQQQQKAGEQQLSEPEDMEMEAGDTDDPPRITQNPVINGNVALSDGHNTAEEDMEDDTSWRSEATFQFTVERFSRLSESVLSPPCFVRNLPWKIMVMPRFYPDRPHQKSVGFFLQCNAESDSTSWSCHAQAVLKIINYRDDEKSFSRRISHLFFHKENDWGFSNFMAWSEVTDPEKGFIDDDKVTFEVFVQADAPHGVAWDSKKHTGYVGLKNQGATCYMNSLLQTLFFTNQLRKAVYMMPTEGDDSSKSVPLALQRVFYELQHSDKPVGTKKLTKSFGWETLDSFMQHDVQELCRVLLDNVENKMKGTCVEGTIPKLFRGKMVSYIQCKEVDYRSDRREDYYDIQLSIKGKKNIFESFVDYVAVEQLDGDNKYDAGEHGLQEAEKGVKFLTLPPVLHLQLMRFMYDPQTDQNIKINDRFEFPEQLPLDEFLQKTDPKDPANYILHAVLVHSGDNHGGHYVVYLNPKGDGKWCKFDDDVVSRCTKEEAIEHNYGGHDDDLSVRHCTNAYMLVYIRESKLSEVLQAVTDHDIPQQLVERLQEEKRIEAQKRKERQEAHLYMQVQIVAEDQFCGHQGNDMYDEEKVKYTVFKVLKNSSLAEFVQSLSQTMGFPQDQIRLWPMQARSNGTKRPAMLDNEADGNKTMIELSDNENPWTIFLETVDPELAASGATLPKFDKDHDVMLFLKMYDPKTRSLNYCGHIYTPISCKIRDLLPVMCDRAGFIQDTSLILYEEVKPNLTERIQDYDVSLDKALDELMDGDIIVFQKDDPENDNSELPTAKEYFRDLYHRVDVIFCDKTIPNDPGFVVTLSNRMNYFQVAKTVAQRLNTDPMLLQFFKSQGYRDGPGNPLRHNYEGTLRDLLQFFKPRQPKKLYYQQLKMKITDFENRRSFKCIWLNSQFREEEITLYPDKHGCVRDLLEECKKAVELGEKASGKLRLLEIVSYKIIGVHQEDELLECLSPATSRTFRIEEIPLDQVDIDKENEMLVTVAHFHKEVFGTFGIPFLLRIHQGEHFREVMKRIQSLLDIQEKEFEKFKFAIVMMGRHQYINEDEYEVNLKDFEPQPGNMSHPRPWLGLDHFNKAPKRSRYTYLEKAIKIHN
UniProt Q8N884: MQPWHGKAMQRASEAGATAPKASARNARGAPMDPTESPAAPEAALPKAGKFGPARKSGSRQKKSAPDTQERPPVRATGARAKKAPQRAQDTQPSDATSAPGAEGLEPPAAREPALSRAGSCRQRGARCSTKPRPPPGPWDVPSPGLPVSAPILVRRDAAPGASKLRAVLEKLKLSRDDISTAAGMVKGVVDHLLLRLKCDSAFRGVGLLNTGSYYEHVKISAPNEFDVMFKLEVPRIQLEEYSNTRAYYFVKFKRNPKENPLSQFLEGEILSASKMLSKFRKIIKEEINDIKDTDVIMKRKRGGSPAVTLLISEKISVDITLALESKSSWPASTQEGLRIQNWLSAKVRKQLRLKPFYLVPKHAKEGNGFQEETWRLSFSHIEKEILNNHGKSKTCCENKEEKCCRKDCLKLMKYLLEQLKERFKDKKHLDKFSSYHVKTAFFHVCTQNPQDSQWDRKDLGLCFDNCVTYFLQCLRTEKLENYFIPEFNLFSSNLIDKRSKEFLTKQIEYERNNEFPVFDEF

These are yes or no findings as the source states them, for the method shown. In cells and extracts the contact can be indirect. Some binding calls cover weakened binding; strength is not graded here.

Consider “3×Flag-USP7 (ubiquitin-specific peptidase 7) (from UniProt Q93009 1-1102) (enzyme)”, for which the binding entry in assay [1] is listed as “binds”. Turning to “cyclic GMP-AMP synthase (from UniProt Q8N884 1-522) (enzyme)”, the binding entry in assay [2] is “binds”.

The record behind these values is article PMC8836657.
